From patent publication US10632111B2, “Donepezil derivative and use thereof” (priority 2014, dated 2020)

Test: Pharmacokinetic properties in SD rats after intramuscular injection
Details: male, rat, in vivo, im, 90 mg/kg
Excerpt: Pharmacokinetic Properties of Compounds of the Present Invention Administered to Rats
In the present embodiment, male SD rats (SPF grade), aged […] and weighing 180 to 220 g, were purchased from Shanghai Slack laboratory Animal Co., Ltd. Throughout the process of the experiment, give the rats free access to food and water.
Adopting grouping of random grouping design, the SD rats for experiments were grouped according to gender and body weight.
The whole blood was collected and placed on ice, followed by centrifugation at 4° C., 8000 rpm and 5 min to collect plasma The plasma was transferred to a 96-well plate and stored at −20° C. until LC-MS/MS examination. Drug concentrations in EDTA (4 mM) anticoagulated plasma of SD rats were determined using LC/MS/MS (Agilent6460). Using WinNonlin 5.2 software, calculate respective relevant pharmacokinetic parameters of each group at each time point after administration according to statistical moment theory.
t1/2 was calculated by the formula t1/2=0.693/λz; λz is an end elimination rate constant derived from the logarithmic concentration—the straight part of the end of time curve, which can be derived from the slope of the logarithmic concentration—the straight part of the end of time curve.

## COc1cc2c(cc1OC)C(=O)C(CC1CCN(Cc3ccccc3)CC1)C2 (stereo not drawn) [donepezil, Donepezil]
  Cmax: 361 ng/mL
  Tmax: 0.67 h
  half-life: 13.3 h
